# Experimental data reported in article PMC11928053.
# Protein sequences, listed by entry. Tags and fused reporters are not part of them.
# UniProt Q9R190: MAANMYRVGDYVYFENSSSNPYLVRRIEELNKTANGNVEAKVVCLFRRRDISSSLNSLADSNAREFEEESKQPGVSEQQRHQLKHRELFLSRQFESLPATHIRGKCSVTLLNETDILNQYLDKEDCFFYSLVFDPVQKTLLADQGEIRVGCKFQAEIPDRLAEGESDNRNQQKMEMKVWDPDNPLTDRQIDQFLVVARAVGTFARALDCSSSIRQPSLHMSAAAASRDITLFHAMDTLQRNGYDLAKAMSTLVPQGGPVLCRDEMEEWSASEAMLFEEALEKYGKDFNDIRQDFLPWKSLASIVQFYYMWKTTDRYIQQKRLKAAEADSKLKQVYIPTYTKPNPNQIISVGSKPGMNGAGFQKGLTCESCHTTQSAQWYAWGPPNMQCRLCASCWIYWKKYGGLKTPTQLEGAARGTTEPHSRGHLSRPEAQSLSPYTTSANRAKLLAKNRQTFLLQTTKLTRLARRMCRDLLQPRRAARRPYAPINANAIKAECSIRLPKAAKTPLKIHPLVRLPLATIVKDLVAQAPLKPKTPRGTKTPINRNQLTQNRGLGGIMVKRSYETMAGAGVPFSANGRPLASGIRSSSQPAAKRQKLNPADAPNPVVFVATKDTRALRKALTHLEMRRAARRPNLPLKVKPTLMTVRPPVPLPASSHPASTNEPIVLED
# UniProt Q9GZV5: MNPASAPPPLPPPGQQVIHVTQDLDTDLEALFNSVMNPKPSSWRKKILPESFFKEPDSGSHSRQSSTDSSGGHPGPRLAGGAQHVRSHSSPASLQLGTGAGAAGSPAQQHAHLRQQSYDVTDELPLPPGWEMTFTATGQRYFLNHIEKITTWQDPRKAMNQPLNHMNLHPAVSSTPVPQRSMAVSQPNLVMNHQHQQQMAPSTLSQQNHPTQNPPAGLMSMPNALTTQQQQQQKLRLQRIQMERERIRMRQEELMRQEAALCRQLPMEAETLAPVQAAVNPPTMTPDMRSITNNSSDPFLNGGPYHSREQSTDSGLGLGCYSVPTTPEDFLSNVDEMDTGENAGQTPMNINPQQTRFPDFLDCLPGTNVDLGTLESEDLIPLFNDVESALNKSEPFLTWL
# UniProt Q08122: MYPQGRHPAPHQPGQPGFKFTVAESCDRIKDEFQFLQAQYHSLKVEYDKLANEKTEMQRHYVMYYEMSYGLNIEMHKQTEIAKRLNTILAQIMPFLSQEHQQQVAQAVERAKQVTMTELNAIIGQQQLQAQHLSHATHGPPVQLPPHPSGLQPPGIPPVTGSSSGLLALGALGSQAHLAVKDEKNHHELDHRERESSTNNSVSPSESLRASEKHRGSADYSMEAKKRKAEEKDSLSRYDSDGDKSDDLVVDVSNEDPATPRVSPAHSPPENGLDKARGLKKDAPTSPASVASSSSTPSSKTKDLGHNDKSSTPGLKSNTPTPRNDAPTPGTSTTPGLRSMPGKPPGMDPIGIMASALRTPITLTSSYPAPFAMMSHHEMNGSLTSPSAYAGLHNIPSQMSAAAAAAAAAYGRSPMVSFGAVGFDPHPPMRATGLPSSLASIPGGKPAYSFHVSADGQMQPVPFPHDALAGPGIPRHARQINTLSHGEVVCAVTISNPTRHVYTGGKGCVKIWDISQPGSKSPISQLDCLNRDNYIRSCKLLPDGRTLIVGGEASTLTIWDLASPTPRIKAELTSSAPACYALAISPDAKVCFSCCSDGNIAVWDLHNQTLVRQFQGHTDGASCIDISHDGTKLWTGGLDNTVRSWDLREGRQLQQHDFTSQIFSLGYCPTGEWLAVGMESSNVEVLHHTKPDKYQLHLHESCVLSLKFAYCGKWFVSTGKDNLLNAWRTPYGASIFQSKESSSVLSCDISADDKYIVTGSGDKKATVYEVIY
# Results are given in words; binding and its absence hold for the method and conditions named. In cells and extracts the contact can be indirect. Some results given as binding are weak or reduced against the parent protein; the word gives no strength.
# Key:
# FLAG–MTA2 = FLAG–MTA2 (UniProt Q9R190); experiment: co-IP; HEK293T cells co-transfected; 500 μg of extract on anti-FLAG M2 magnetic beads overnight at 4°C, washed three times with PBS, eluted with 3× FLAG peptide, western blot
# FLAG–TAZ = FLAG–TAZ (UniProt Q9GZV5); experiment: as above
binding (FLAG–MTA2),binding (FLAG–TAZ),Substance
binds,–,HA–TAZ (from UniProt Q9GZV5 1-400)
–,binds,TLE3 (open reading frame in pcDNA3) (from UniProt Q08122 1-772)
